The values that follow are results of earlier work, collected in article PMC10878854, “Identification, structural characterization, and molecular dynamic simulation of ACE inhibitory peptides in whey hydrolysates from Chinese Rushan cheese by-product” (Food Chemistry: X, 2024).

Sequences of proteins named here, by UniProt entry; tags and fusion partners are left off. Residues count along the entry.
UniProt P12822, 34-1310 limits assumed: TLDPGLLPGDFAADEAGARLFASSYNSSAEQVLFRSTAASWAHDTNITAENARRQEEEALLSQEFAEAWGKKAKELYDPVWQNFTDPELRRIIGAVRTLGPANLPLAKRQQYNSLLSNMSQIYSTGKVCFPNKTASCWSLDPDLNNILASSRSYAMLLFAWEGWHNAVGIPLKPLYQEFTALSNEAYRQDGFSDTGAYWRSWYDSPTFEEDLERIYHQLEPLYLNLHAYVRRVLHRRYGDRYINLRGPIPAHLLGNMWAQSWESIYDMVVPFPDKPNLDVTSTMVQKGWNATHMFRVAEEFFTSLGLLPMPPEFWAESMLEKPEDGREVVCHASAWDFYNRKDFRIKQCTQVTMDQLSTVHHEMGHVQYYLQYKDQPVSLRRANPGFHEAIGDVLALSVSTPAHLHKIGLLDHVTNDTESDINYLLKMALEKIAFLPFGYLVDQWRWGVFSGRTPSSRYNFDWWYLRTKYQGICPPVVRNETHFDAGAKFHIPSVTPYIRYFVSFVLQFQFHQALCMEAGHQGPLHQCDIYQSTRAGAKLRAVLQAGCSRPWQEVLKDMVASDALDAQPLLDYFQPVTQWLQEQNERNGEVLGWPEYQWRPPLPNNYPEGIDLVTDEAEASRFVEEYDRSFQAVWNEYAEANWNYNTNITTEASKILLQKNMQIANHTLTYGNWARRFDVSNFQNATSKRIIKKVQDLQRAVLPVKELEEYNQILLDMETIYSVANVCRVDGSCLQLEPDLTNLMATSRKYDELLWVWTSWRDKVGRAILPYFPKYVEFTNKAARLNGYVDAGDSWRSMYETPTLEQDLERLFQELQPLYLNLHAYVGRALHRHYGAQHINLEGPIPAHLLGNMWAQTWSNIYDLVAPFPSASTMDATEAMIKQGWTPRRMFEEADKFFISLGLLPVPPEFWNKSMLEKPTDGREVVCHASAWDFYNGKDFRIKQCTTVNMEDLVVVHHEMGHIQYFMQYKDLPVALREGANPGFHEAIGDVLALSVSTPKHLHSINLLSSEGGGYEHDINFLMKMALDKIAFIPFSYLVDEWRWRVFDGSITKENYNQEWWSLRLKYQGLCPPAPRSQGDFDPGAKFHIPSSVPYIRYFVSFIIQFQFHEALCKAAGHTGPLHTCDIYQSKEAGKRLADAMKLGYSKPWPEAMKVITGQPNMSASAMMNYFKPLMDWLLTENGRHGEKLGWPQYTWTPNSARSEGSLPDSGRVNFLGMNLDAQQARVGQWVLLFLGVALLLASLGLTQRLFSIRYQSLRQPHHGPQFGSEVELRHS

Converted amounts (≈) assume the structure as drawn. The match of structure and compound is tentative.

This series deals with ACE (Oryctolagus cuniculus, UniProt P12822). Particulars: cited from earlier work.

For the compound `C[C@H](NC(=O)CN)C(=O)O`, where the note is “dipeptide from whey proteins fermented with Lactobacillus plantarum QS670, ref Xia et al., 2020”, the “IC50 (ACE inhibitory activity)” value was 1220 µg/mL (≈ 8.35 mM).

For the compound `O=C(O)CC[C@H](NC(=O)[C@@H]1CCCN1)C(=O)N[C@@H](Cc1c[nH]c2ccccc12)C(=O)O`, the IC50 (read-out: IC50 (ACE inhibitory activity), α-lactalbumin derived peptide, ref Hou et al., 2021) was 3.13 mM.

What is called IC50 is the concentration at which inhibition is half-maximal.
